These are yes or no findings as the source states them, for the method shown. In cells and extracts the contact can be indirect. Binding calls can cover weak binding; strength is not graded here.
T1: mouse acrosome and sperm tail protein (MAST) (mouse (endogenous in testis)) (UniProt Q7TPM5)
T1 sequence: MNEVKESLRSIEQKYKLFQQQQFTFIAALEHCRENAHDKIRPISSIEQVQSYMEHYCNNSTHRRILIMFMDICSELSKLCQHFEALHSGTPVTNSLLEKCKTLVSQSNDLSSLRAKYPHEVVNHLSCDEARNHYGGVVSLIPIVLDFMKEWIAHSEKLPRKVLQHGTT

B1: mouse acrosome and sperm tail protein (MAST) (protein, UniProt Q7TPM5 1-168)
chain: T1 sequence

Assays:
[1] = target: T1, mouse acrosome and sperm tail protein (MAST) (mouse (endogenous in testis)); experiment: co-IP; antibody cross-linked (DSS) to protein A/G plus agarose (Pierce cross link IP kit); pre-cleared mouse testis lysate, 1-2 h or overnight at 4°C; eluate probed by western blot
[2] = target: caldendrin (mouse (endogenous in testis)); experiment: as above

Molecule | binding [1] | binding [2]
caldendrin (mouse (endogenous in testis)) | binds | –
B1 | – | binds

— article PMC4225516
